Binding data for ten molecules are collected here from paper PMC9070665.

Sequences of proteins named here, by UniProt entry; tags and fusion partners are left off.
UniProt Q96S21: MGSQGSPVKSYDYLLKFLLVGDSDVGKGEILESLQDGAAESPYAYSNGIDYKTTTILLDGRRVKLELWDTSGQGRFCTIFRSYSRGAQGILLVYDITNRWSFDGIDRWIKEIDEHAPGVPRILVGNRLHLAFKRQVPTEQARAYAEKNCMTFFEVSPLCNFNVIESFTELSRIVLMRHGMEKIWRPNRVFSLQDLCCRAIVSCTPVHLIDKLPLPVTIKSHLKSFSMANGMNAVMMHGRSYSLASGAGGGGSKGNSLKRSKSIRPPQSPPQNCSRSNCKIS
UniProt P67775: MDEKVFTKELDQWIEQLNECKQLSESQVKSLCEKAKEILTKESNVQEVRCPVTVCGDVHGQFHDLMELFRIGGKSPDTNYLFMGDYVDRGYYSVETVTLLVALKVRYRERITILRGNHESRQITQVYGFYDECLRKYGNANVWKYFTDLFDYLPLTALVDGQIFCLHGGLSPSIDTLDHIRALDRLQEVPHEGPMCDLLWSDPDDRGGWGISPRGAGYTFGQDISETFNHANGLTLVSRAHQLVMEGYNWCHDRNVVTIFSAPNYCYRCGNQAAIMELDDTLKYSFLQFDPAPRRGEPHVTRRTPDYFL
UniProt P62140: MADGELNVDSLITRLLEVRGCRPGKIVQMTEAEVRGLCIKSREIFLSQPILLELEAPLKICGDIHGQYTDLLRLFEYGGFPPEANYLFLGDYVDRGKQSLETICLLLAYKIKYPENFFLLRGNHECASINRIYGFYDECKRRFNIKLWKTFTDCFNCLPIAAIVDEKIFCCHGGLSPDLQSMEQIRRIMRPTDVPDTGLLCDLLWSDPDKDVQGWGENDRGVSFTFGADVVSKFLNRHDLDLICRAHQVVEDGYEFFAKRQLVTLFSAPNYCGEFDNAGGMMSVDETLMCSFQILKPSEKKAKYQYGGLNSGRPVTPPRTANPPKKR
UniProt Q9UBF6: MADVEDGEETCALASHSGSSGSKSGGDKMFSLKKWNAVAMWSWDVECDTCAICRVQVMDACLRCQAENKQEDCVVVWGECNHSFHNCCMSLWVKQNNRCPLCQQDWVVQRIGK
UniProt Q15370: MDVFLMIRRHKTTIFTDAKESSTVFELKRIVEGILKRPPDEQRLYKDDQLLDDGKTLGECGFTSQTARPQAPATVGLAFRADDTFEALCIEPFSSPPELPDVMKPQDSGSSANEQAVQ
UniProt Q93034: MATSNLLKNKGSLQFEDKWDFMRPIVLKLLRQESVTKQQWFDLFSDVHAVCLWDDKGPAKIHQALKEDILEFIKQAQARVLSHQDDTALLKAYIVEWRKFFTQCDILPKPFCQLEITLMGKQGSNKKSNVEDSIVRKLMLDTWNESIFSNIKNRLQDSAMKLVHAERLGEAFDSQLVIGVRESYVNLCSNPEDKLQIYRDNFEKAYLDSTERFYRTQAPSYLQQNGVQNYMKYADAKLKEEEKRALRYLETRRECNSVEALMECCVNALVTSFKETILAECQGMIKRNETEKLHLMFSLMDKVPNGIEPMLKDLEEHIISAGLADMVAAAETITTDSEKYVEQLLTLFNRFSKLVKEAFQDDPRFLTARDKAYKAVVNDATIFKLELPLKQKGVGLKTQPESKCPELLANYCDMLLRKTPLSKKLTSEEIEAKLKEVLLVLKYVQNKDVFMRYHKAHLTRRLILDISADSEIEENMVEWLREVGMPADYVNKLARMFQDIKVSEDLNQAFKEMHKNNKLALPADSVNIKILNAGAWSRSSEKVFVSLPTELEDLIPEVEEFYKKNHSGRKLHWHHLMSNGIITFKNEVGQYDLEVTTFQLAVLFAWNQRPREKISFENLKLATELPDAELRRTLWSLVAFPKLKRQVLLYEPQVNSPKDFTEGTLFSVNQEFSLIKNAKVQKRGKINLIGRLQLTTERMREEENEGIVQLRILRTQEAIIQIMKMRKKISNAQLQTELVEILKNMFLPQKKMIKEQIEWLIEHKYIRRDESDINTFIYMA

The labels stand for the following.
B1: ankyrin repeat domain 28 (ANKRD28) (protein, UniProt O15084 1-1053)
chain: MAFLKLRDQPSLVQAIFNGDPDEVRALIFKKEDVNFQDNEKRTPLHAAAYLGDAEIIELLILSGARVNAKDSKWLTPLHRAVASCSEEAVQVLLKHSADVNARDKNWQTPLHIAAANKAVKCAEALVPLLSNVNVSDRAGRTALHHAAFSGHGEMVKLLLSRGANINAFDKKDRRAIHWAAYMGHIEVVKLLVSHGAEVTCKDKKSYTPLHAAASSGMISVVKYLLDLGVDMNEPNAYGNTPLHVACYNGQDVVVNELIDCGAIVNQKNEKGFTPLHFAAASTHGALCLELLVGNGADVNMKSKDGKTPLHMTALHGRFSRSQTIIQSGAVIDCEDKNGNTPLHIAARYGHELLINTLITSGADTAKRGIHGMFPLHLAALSGFSDCCRKLLSSGFDIDTPDDFGRTCLHAAAAGGNLECLNLLLNTGADFNKKDKFGRSPLHYAAANCNYQCLFALVGSGASVNDLDERGCTPLHYAATSDTDGKCLEYLLRNDANPGIRDKQGYNAVHYSAAYGHRLCLQLIASETPLDVLMETSGTDMLSDSDNRATISPLHLAAYHGHHQALEVLVQSLLDLDVRNSSGRTPLDLAAFKGHVECVDVLINQGASILVKDYILKRTPIHAAATNGHSECLRLLIGNAEPQNAVDIQDGNGQTPLMLSVLNGHTDCVYSLLNKGANVDAKDKWGRTALHRGAVTGHEECVDALLQHGAKCLLRDSRGRTPIHLSAACGHIGVLGALLQSAASMDANPATADNHGYTALHWACYNGHETCVELLLEQEVFQKTEGNAFSPLHCAVINDNEGAAEMLIDTLGASIVNATDSKGRTPLHAAAFTDHVECLQLLLSHNAQVNSVDSTGKTPLMMAAENGQTNTVEMLVSSASAELTLQDNSKNTALHLACSKGHETSALLILEKITDRNLINATNAALQTPLHVAARNGLTMVVQELLGKGASVLAVDENGYTPALACAPNKDVADCLALILATMMPVSSSSPLSSLTFNAINRYTNTSKTVSFEALPIMRNEPSSYCSFNNIGGEQEYLYTDVDELNDSDSETY
B2: PP6R1 (protein, UniProt Q9UPN7 1-881)
chain: MFWKFDLHTSSHLDTLLEREDLSLPELLDEEDVLQECKVVNRKLLDFLLQPPHLQAMVAWVTQEPPDSGEERLRYKYPSVACEILTSDVPQINDALGADESLLNRLYGFLQSTGSLNPLLASFFSKVMGILINRKTDQLVSFLRKKDDFVDLLLQHIGTSAIMDLLLRLLTCVERPQLRQDVVNWLNEEKIVQRLIEQIHPSKDENQHSNASQSLCDIIRLSREQMIQVQDSPEPDQLLATLEKQETIEQLLSNMFEGEQSQSVIVSGIQVLLTLLEPRRPRSESVTVNSFFSSVDGQLELLAQGALESTVSSVGALHALRPRLSCFHQLLLEPPKLEPLQMTWGMLAPPLGNTRLHVVKLLASALSANDAALTHELLALDVPNTMLDLFFHYVFNNFLHAQVEGCVSTMLSLGPPPDSSPETPIQNPVVKHLLQQCRLVERILTSWEENDRVQCAGGPRKGYMGHLTRVAGALVQNTEKGPNAEQLRQLLKELPSEQQEQWEAFVSGPLAETNKKNMVDLVNTHHLHSSSDDEDDRLKEFNFPEEAVLQQAFMDFQMQRMTSAFIDHFGFNDEEFGEQEESVNAPFDKTANITFSLNADDENPNANLLEICYKDRIQQFDDDEEEEDEEEAQGSGESDGEDGAWQGSQLARGARLGQPPGVRSGGSTDSEDEEEEDEEEEEDEEGIGCAARGGATPLSYPSPGPQPPGPSWTATFDPVPTDAPTSPRVSGEEELHTGPPAPQGPLSVPQGLPTQSLASPPARDALQLRSQDPTPPSAPQEATEGSKVTEPSAPCQALVSIGDLQATFHGIRSAPSSSDSATRDPSTSVPASGAHQPPQTTEGEKSPEPLGLPQSQSAQALTPPPIPNGSAPEGPASPGSQ
B3: catalytic PP6 subunit (PP6c) (enzyme, UniProt O00743 1-305)
chain: MAPLDLDKYVEIARLCKYLPENDLKRLCDYVCDLLLEESNVQPVSTPVTVCGDIHGQFYDLCELFRTGGQVPDTNYIFMGDFVDRGYYSLETFTYLLALKAKWPDRITLLRGNHESRQITQVYGFYDECQTKYGNANAWRYCTKVFDMLTVAALIDEQILCVHGGLSPDIKTLDQIRTIERNQEIPHKGAFCDLVWSDPEDVDTWAISPRGAGWLFGAKVTNEFVHINNLKLICRAHQLVHEGYKFMFDEKLVTVWSAPNYCYRCGNIASIMVFKDVNTREPKLFRAVPDSERVIPPRTTTPYFL
B4: ANKRD52 (protein, UniProt Q8NB46 1-1076)
chain: MGILSITDQPPLVQAIFSRDVEEVRSLLSQKENINVLDQERRTPLHAAAYVGDVPILQLLLMSGANVNAKDTLWLTPLHRAAASRNEKVLGLLLAHSADVNARDKLWQTPLHVAAANRATKCAEALAPLLSSLNVADRSGRSALHHAVHSGHLETVNLLLNKGASLNVCDKKERQPLHWAAFLGHLEVLKLLVARGADLGCKDRKGYGLLHTAAASGQIEVVKYLLRMGAEIDEPNAFGNTALHIACYLGQDAVAIELVNAGANVNQPNDKGFTPLHVAAVSTNGALCLELLVNNGADVNYQSKEGKSPLHMAAIHGRFTRSQILIQNGSEIDCADKFGNTPLHVAARYGHELLISTLMTNGADTARRGIHDMFPLHLAVLFGFSDCCRKLLSSGQLYSIVSSLSNEHVLSAGFDINTPDNLGRTCLHAAASGGNVECLNLLLSSGADLRRRDKFGRTPLHYAAANGSYQCAVTLVTAGAGVNEADCKGCSPLHYAAASDTYRRAEPHTPSSHDAEEDEPLKESRRKEAFFCLEFLLDNGADPSLRDRQGYTAVHYAAAYGNRQNLELLLEMSFNCLEDVESTIPVSPLHLAAYNGHCEALKTLAETLVNLDVRDHKGRTALFLATERGSTECVEVLTAHGASALIKERKRKWTPLHAAAASGHTDSLHLLIDSGERADITDVMDAYGQTPLMLAIMNGHVDCVHLLLEKGSTADAADLRGRTALHRGAVTGCEDCLAALLDHDAFVLCRDFKGRTPIHLASACGHTAVLRTLLQAALSTDPLDAGVDYSGYSPMHWASYTGHEDCLELLLEHSPFSYLEGNPFTPLHCAVINNQDSTTEMLLGALGAKIVNSRDAKGRTPLHAAAFADNVSGLRMLLQHQAEVNATDHTGRTALMTAAENGQTAAVEFLLYRGKADLTVLDENKNTALHLACSKGHEKCALMILAETQDLGLINATNSALQMPLHIAARNGLASVVQALLSHGATVLAVDEEGHTPALACAPNKDVADCLALILSTMKPFPPKDAVSPFSFSLLKNCSIAAAKTVGGCGALPHGASCPYSQERPGAIGLDGCYSE
B5: PPM1G (enzyme, UniProt O15355 1-546)
chain: MGAYLSQPNTVKCSGDGVGAPRLPLPYGFSAMQGWRVSMEDAHNCIPELDSETAMFSVYDGHGGEEVALYCAKYLPDIIKDQKAYKEGKLQKALEDAFLAIDAKLTTEEVIKELAQIAGRPTEDEDEKEKVADEDDVDNEEAALLHEEATMTIEELLTRYGQNCHKGPPHSKSGGGTGEEPGSQGLNGEAGPEDSTRETPSQENGPTAKAYTGFSSNSERGTEAGQVGEPGIPTGEAGPSCSSASDKLPRVAKSKFFEDSEDESDEAEEEEEDSEECSEEEDGYSSEEAENEEDEDDTEEAEEDDEEEEEEMMVPGMEGKEEPGSDSGTTAVVALIRGKQLIVANAGDSRCVVSEAGKALDMSYDHKPEDEVELARIKNAGGKVTMDGRVNGGLNLSRAIGDHFYKRNKNLPPEEQMISALPDIKVLTLTDDHEFMVIACDGIWNVMSSQEVVDFIQSKISQRDENGELRLLSSIVEELLDQCLAPDTSGDGTGCDNMTCIIICFKPRNTAELQPESGKRKLEEVLSTEGAEENGNSDKKKKAKRD

No constants are given. Whether binding was seen depends on the method and setting. In cells and extracts the contact can be indirect. A yes stands for co-enrichment or nearness to the bait. Other partners may have been found.

The experiment addresses FLAG-Rab40c (human) (UniProt Q96S21). The experiment is described as follows: affinity purification with mass spectrometry; anti-FLAG antibody cross-linked to Protein G-Sepharose beads (or control mouse IgG beads) incubated with Triton X-100 lysates (PBS, 1% Triton X-100, 10 mM PMSF) of MDA-MB-231 cells stably expressing FLAG-Rab40c or FLAG-Rab40c-4A; PBS wash; elution with 1% SDS; tandem mass spectrometry.
“PP2CA (from UniProt P67775 1-309) (enzyme)”: the binding entry was “binds”.

Consider “PP1CB (from UniProt P62140 1-327) (enzyme)”, for which the binding entry is reported as “binds”.

Consider Rbx2 (from UniProt Q9UBF6 1-113), for which the binding entry is “binds”.

As for Elongin B (from UniProt Q15370 1-118), the binding result is “binds”.

Turning to Cullin5 (from UniProt Q93034 1-780), the binding entry is given as “binds”.

Consider B1, for which the binding result is given as “binds”.

B2: the binding result is “binds”.

With B3, the binding entry was “binds”.

Consider B4, for which the binding result is “binds”.

B5: the binding entry is on record as “binds”.
